# Some of the results follow.
# By UniProt entry, the sequences of proteins in these tests, tags left out. Where a name states a change or a piece, a line headed by the entry shows the natural chain unless it says otherwise.
# UniProt Q96G03: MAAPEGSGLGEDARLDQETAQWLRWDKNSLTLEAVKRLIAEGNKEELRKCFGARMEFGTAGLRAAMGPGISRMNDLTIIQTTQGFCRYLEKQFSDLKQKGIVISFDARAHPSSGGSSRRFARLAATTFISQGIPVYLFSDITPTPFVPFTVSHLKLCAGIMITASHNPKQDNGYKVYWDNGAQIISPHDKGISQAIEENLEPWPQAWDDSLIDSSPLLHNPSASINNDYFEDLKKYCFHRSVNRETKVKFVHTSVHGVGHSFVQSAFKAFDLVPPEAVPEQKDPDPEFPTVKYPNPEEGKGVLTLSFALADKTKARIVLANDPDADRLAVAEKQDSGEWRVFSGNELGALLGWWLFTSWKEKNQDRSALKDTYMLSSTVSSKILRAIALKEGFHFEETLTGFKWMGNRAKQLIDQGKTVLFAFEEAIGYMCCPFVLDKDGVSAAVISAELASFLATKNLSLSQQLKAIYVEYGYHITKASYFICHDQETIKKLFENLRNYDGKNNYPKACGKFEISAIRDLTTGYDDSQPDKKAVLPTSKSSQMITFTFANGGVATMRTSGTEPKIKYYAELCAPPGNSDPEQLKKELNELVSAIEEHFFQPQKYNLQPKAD
# UniProt Q16875: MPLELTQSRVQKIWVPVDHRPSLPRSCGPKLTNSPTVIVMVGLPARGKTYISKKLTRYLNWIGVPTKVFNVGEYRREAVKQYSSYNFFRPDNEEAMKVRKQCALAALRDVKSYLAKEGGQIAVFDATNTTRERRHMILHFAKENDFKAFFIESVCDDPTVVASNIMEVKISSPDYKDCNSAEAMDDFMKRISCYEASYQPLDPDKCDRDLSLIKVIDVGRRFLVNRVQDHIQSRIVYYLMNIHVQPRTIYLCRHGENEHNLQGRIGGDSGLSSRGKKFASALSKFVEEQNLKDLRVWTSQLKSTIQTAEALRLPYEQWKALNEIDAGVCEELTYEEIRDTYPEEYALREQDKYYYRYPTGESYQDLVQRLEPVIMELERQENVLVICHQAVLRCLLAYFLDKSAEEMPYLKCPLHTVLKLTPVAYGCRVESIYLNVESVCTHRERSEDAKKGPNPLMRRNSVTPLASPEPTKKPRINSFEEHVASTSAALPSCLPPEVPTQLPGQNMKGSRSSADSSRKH
# UniProt Q8N2W9: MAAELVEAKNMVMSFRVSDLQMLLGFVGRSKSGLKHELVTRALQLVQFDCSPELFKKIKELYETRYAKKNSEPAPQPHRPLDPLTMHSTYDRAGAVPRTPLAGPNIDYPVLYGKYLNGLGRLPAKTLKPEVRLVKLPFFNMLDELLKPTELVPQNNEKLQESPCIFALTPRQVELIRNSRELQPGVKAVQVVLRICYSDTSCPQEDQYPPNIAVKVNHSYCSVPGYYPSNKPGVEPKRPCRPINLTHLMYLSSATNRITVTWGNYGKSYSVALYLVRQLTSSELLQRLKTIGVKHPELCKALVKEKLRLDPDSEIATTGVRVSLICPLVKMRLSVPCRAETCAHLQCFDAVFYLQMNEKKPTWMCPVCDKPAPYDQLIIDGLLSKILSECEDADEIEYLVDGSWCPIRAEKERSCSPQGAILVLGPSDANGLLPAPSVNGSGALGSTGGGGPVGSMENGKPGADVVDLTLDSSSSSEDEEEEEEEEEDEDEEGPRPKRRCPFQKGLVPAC
# UniProt Q969N2: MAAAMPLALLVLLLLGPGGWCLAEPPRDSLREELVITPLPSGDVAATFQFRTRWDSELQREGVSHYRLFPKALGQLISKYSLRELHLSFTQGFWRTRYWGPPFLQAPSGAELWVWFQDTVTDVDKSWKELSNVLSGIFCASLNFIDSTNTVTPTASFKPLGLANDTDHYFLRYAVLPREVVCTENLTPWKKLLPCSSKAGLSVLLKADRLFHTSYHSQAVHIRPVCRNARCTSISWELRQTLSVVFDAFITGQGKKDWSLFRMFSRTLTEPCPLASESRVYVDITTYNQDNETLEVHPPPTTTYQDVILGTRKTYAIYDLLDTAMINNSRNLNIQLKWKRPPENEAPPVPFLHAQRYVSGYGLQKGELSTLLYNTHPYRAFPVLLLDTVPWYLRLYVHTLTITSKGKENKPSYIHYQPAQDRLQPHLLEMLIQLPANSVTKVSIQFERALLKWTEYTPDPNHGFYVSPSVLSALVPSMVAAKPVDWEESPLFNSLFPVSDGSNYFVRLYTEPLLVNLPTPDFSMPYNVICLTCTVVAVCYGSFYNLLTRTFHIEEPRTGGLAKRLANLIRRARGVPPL
# UniProt O43189: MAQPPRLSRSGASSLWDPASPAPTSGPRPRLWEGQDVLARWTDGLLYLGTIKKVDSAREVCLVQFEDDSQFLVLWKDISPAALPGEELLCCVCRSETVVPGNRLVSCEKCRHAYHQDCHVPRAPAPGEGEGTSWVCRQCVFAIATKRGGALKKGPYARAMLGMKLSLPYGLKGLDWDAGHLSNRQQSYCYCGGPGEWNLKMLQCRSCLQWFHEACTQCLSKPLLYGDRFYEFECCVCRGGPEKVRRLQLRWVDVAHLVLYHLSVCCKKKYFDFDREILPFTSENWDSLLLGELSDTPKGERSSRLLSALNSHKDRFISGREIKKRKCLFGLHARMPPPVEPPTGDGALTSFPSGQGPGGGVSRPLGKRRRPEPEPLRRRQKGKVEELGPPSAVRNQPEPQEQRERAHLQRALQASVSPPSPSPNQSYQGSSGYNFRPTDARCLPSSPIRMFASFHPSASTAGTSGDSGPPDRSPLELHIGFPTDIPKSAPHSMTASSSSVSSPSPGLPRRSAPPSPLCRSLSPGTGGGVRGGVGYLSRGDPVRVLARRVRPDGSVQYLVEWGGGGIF
# UniProt O94880: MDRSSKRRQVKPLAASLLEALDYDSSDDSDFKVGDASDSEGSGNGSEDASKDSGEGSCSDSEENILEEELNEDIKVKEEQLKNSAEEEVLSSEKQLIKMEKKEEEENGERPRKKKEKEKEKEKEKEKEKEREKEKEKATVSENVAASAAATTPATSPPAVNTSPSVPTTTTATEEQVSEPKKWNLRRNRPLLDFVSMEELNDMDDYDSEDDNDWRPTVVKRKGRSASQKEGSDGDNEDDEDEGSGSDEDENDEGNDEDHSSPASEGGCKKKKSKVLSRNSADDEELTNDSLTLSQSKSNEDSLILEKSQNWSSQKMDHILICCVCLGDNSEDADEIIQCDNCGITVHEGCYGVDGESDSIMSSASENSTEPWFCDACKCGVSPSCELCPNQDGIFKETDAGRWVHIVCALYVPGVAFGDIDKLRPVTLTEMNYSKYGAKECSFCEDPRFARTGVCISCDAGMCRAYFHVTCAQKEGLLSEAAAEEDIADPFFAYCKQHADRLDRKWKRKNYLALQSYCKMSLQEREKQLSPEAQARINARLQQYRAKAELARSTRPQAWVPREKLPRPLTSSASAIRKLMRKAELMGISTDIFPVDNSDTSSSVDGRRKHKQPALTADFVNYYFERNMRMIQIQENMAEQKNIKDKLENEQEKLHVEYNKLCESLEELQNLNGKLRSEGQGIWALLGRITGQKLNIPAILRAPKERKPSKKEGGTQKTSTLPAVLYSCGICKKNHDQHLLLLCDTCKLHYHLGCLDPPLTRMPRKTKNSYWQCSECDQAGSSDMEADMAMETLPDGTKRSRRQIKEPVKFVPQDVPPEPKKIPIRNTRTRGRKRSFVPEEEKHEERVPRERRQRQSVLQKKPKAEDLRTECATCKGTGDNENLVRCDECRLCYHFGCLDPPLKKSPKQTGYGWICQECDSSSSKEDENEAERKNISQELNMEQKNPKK
# UniProt Q92576, whole entry, looked up: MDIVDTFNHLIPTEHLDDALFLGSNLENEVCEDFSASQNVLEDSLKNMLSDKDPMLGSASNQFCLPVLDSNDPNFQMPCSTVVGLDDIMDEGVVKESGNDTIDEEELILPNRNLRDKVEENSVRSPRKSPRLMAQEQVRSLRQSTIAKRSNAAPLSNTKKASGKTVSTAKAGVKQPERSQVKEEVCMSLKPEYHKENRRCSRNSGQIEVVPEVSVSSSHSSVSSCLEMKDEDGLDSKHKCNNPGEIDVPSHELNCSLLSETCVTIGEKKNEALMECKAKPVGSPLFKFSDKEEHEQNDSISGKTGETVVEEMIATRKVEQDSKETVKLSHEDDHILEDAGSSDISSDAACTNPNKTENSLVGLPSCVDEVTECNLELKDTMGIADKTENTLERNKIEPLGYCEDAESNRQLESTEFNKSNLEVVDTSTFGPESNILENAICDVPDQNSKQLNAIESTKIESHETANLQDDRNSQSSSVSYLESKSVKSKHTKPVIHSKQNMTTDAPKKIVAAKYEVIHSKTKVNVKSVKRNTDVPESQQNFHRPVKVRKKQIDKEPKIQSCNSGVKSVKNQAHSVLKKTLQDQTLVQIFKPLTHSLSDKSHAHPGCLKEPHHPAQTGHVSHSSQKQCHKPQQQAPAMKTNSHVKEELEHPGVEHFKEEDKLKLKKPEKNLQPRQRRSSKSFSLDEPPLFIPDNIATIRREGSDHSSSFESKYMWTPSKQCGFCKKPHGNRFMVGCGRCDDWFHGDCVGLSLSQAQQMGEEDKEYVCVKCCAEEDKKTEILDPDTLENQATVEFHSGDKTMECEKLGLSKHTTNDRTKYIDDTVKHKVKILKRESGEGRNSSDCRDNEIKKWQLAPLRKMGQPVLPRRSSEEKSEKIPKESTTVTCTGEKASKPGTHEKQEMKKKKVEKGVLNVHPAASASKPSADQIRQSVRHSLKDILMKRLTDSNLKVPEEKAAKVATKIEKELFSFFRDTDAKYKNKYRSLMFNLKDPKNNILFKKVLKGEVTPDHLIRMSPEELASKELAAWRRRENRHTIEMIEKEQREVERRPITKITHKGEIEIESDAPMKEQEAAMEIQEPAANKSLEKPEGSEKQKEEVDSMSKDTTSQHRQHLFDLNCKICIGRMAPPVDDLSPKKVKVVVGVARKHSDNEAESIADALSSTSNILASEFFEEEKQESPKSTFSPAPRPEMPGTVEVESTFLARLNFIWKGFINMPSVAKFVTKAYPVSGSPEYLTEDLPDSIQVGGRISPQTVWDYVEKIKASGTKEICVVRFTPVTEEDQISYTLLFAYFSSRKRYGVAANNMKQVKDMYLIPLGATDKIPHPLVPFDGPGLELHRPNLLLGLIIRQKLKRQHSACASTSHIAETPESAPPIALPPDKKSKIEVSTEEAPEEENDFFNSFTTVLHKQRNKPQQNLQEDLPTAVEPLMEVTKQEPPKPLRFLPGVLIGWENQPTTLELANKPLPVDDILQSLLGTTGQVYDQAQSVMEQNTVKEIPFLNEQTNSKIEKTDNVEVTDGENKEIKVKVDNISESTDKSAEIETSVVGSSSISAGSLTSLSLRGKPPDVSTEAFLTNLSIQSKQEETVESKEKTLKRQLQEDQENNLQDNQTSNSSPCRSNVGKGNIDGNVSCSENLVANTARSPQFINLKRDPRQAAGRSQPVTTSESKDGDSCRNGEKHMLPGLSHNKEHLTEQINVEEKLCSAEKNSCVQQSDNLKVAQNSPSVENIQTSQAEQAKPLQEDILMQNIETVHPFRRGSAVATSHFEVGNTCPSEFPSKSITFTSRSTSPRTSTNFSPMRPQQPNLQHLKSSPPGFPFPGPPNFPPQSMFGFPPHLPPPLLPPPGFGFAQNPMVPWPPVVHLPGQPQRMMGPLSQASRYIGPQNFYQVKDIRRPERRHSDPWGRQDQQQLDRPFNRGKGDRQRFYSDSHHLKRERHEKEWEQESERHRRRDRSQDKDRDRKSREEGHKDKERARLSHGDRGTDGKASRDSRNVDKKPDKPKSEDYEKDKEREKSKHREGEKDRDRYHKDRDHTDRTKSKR
# UniProt P00558: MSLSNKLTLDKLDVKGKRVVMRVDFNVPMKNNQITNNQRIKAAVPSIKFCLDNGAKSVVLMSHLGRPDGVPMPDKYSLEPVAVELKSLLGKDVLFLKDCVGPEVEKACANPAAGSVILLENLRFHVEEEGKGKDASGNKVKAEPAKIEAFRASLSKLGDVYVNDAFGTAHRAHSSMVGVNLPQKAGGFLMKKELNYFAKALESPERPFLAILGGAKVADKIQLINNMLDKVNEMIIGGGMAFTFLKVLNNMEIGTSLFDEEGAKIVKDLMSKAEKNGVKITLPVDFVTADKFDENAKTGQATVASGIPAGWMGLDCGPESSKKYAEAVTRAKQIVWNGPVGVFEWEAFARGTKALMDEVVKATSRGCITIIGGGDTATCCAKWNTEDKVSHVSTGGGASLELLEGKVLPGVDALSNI
# Compound: CC1Cc2ccccc2N1C(=O)C1CCCN(C1)C(=O)CCl (mixture of isomers) [TRIM25 ligand 11 (diastereomer mixture)]
# Test: probe-labelled cysteine peptide fold change vs DMSO (competition) (log2 fold change); higher = less target engagement (more negative = stronger competition)
# Settings: THP-1, incubation time: 4 h
# 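Further: competitive chemoproteomic profiling in live THP-1 cells with an iodoacetamide desthiobiotin (IA-DTB) probe, comparing probe-labelled peptide intensities in compound-treated cells against DMSO-treated controls.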
Target,probe-labelled cysteine peptide fold change (10 µM),probe-labelled cysteine peptide fold change (50 µM)
PGM2_Q96G03_484_ASYFICHDQETIK (UniProt Q96G03),0.175,0.109
PHKB_Q93100_280_QTLCSLLPR (UniProt Q93100),0.101,0.161
PFKFB3_Q16875_387_QENVLVICHQAVLR (UniProt Q16875),0.175,0.248
PFKL_P17858_630_CHDYYTTEFLYNLYSSEGK (UniProt P17858),0.000602,-0.0394
PFKL_P17858_170_TYSHLNIAGLVGSIDNDFCGTDMTIGTDSALHR (UniProt P17858),0.137,-0.0944
PIAS4_Q8N2W9_390+405_ILSECEDADEIEYLVDGSWCPIR (UniProt Q8N2W9),-0.36,-0.0105
PIGT_Q969N2_182_EVVCTENLTPWKK (UniProt Q969N2),-0.0672,0.174
PHF1_O43189_327_CLFGLHAR (UniProt O43189),-0.13,-0.0784
PHF14_O94880-2_612_LCYHFGCLDPPLK (UniProt O94880),-0.0051,-0.056
PHF3_Q92576_885_ESTTVTCTGEK (UniProt Q92576),0.0091,-0.288
PFKL_P17858_114_RAAAYNLVQHGITNLCVIGGDGSLTGANIFR (UniProt P17858),0.171,0.455
PGK1_P00558_316_TGQATVASGIPAGWMGLDCGPESSKK (UniProt P00558),-0.0449,-0.138

# Given with bars between the fields: entries from further up
Target | probe-labelled cysteine peptide fold change (10 µM) | probe-labelled cysteine peptide fold change (50 µM)
PIGT_Q969N2_182_EVVCTENLTPWKK (UniProt Q969N2) | -0.0672 | 0.174
PHF1_O43189_327_CLFGLHAR (UniProt O43189) | -0.13 | -0.0784
